Some of the results follow. Small differences around the control level are noise.

Chains of the proteins cited; added tags and fusions are not shown. Lines headed by an entry give the natural chain unless they say otherwise; changes in a name come on top.
UniProt O15305: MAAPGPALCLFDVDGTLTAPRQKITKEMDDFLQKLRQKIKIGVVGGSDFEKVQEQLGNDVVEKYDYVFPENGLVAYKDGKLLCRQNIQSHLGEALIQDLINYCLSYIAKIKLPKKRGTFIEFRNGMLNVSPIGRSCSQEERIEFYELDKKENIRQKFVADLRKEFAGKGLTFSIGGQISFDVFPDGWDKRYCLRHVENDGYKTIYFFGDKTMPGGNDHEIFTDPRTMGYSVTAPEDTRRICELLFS
UniProt B7ZW38: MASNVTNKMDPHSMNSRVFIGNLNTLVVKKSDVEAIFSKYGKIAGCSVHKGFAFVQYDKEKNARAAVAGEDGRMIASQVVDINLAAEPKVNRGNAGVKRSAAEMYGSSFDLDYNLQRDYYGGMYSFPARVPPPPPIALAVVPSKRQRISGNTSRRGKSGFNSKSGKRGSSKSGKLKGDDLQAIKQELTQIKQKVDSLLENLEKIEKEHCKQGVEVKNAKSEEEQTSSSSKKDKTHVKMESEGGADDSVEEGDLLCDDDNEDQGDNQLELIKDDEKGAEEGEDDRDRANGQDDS
UniProt O14578, whole entry: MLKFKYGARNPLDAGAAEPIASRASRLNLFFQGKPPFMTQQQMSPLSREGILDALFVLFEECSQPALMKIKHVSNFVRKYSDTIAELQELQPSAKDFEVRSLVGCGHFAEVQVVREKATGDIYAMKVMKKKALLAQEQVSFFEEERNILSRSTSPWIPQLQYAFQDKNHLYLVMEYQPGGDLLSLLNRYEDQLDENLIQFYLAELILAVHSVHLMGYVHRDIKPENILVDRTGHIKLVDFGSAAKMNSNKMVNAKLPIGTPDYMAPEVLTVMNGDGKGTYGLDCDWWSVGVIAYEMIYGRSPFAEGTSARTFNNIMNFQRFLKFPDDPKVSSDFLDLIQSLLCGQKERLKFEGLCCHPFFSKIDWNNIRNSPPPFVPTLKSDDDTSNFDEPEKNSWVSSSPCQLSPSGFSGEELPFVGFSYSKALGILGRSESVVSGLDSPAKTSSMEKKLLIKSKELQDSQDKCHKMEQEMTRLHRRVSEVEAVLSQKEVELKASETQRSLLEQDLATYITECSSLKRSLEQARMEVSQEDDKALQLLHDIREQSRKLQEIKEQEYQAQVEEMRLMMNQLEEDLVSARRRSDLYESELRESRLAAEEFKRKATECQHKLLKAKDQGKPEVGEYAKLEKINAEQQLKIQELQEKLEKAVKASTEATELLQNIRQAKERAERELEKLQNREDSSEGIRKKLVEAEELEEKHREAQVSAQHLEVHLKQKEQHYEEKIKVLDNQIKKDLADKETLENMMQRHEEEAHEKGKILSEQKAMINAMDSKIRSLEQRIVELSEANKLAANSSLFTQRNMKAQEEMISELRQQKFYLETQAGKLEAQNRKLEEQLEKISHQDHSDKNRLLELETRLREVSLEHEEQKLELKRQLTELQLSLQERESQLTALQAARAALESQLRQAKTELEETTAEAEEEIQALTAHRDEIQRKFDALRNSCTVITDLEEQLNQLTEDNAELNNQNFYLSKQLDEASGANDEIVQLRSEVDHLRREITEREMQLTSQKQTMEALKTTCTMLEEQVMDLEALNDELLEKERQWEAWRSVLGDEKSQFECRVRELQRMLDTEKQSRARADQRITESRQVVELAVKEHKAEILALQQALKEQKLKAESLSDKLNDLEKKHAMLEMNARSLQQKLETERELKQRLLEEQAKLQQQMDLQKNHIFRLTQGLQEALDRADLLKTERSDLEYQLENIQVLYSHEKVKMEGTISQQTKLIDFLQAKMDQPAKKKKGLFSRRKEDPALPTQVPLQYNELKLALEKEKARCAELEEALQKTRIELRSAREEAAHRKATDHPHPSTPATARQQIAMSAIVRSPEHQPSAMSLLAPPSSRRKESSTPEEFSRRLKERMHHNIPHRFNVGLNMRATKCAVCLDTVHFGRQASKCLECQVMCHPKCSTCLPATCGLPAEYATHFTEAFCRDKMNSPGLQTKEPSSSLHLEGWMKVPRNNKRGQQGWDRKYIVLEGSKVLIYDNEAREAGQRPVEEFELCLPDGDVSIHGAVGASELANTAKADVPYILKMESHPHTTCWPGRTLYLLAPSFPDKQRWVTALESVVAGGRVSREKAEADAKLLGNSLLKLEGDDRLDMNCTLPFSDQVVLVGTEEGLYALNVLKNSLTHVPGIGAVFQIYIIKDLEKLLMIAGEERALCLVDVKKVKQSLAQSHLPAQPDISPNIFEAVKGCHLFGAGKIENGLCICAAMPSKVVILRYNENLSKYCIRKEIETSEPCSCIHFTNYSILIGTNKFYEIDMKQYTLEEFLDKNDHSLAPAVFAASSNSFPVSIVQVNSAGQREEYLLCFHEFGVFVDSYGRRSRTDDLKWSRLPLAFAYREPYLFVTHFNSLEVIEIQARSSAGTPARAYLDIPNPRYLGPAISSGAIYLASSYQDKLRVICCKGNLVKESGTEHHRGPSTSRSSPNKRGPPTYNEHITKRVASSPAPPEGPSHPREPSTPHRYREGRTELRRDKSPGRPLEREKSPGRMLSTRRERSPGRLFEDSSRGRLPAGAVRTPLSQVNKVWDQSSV
UniProt O00264: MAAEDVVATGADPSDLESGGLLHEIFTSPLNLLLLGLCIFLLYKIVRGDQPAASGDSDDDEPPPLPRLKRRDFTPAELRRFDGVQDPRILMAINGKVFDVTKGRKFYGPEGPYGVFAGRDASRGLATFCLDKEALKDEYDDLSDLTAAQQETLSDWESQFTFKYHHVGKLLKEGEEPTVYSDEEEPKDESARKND
UniProt O00170: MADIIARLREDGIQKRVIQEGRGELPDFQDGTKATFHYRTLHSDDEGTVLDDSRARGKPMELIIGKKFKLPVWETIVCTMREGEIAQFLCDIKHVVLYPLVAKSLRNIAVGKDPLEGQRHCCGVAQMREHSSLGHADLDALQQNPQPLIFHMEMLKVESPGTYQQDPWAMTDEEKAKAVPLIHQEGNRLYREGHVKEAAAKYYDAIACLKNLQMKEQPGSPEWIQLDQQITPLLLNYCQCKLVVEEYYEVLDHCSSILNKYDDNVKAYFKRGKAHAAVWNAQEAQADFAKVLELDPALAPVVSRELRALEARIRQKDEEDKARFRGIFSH
UniProt A8K8P3: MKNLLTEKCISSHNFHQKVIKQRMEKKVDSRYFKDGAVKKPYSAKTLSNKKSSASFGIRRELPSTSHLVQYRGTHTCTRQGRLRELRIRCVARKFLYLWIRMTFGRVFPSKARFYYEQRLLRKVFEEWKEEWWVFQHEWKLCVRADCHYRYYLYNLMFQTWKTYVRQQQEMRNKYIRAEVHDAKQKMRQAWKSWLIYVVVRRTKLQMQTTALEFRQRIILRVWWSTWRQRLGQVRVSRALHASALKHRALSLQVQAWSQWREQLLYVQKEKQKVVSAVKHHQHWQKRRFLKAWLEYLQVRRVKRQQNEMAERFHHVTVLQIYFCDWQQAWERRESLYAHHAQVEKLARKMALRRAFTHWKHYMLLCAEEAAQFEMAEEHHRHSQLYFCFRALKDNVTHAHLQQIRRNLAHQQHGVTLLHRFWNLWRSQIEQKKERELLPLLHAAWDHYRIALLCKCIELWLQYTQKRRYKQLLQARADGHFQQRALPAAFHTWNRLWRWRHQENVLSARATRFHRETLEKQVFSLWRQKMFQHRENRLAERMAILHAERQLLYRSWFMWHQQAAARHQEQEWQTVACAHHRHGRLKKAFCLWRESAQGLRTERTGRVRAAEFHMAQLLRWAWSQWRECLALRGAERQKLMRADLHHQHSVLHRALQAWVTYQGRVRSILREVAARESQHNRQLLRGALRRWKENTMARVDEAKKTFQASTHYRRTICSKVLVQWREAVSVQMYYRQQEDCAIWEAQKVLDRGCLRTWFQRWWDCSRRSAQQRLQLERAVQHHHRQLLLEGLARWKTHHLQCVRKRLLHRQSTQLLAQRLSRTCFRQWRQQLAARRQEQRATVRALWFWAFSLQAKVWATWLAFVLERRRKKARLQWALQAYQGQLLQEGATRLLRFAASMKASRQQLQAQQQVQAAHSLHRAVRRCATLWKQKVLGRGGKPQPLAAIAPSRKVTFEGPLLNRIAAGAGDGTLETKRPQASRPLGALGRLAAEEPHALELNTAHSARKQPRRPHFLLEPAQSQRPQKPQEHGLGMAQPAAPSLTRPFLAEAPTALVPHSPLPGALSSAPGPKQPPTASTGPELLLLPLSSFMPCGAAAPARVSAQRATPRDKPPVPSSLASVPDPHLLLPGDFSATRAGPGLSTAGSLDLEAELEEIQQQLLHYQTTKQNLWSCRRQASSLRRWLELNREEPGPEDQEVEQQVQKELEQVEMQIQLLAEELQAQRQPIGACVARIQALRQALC
UniProt O14791: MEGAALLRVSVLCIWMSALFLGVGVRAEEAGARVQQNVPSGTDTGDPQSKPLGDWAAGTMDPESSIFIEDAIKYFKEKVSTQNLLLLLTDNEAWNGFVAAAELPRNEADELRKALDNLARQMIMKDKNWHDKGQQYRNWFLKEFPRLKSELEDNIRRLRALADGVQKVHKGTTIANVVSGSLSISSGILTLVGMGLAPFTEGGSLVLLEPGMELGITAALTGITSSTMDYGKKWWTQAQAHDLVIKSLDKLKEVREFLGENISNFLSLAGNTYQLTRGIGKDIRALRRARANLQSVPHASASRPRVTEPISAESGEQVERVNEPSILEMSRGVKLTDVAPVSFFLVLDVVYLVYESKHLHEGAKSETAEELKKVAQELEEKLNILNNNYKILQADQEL
UniProt O14529: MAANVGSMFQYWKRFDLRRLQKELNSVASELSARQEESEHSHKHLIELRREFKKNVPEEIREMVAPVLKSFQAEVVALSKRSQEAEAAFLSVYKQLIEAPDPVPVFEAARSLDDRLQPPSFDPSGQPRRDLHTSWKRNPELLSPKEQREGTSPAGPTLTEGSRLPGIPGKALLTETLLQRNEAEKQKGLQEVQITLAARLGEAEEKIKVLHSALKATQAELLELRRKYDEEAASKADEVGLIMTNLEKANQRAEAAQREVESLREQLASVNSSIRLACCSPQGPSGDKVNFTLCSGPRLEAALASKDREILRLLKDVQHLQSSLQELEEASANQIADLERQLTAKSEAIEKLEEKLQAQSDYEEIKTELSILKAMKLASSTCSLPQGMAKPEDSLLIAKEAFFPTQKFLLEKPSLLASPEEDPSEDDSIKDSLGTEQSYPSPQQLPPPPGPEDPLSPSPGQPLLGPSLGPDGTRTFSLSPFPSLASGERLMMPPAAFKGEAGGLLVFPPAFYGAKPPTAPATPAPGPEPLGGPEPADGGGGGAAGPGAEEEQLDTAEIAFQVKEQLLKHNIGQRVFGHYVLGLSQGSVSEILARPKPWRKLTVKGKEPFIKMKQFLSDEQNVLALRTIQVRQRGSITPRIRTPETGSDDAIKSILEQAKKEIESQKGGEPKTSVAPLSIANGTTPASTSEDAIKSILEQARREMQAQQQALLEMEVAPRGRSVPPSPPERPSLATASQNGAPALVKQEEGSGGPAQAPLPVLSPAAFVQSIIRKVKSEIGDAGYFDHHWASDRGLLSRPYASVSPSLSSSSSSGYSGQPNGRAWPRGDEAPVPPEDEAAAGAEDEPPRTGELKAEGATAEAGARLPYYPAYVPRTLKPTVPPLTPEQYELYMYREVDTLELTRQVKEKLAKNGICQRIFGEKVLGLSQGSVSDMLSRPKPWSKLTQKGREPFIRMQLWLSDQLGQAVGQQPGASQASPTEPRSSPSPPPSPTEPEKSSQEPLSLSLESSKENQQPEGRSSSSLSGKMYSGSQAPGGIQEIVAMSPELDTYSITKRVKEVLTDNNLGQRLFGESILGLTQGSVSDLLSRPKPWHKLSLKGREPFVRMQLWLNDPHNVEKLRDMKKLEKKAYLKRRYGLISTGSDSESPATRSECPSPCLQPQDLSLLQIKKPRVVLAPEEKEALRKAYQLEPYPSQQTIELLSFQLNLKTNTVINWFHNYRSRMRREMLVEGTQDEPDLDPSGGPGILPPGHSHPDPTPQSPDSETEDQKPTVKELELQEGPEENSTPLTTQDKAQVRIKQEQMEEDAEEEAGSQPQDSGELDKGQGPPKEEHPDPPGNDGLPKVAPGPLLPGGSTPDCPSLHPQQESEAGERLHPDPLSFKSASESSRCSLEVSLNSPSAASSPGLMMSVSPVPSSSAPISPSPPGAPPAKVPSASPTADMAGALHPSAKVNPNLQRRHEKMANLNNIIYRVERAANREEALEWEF
UniProt O00422: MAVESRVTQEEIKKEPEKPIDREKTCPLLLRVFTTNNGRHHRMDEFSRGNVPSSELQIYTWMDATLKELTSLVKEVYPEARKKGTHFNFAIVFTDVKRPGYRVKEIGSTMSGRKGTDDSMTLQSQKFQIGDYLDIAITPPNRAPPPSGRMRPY

Compound in this experiment: CN[C@@H]1C[C@H]2O[C@@](C)([C@@H]1OC)n1c3ccccc3c3c4c(c5c6ccccc6n2c5c31)C(=O)NC4 [staurosporine]
As to the kind of experiment: log2 fold change of tryptic peptide abundance, ligand vs vehicle (limited proteolysis) (log2 ratio); higher = more trypsin-susceptible (destabilized). The conditions noted are these: ligand concentration: 20 uM; sample: K562 cleared lysate; digestion: 4 min, 22 C (HT-PELSA RT4min, Orbitrap Astral).
Regarding “UniProt B7ZLF3 (peptide sequence: IHSGEKPHQCAQCGR, peptide start residue: 117)”, the log2 fold change amounted to 0.828. Consider “PMM2 (peptide sequence: TMGYSVTAPEDTRR, peptide start residue: 226) (UniProt O15305)”, for which the log2 fold change was -0.144. On to “FHAD1 (peptide sequence: ETLEEERK, peptide start residue: 703) (UniProt B1AJZ9)”, for which the log2 fold change was -0.0538. “ACOT8 (peptide sequence: LPVLYQVER, peptide start residue: 92) (UniProt O14734)”: the log2 fold change was -0.0247. Next, “UniProt B7ZW38 (peptide sequence: VFIGNLNTLVVK, peptide start residue: 18)”: -0.0571; “CIT (peptide sequence: CAELEEALQK, peptide start residue: 1272) (UniProt O14578)”: -0.24; “PGRMC1 (peptide sequence: DFTPAELR, peptide start residue: 72) (UniProt O00264)”: 0.0681. Next, “AIP (peptide sequence: YYDAIACLKNLQMK, peptide start residue: 202) (UniProt O00170)”: -0.676; “UniProt A8K8P3 (peptide sequence: IAAGAGDGTLETK, peptide start residue: 963)”: -0.357; “CASC3 (peptide sequence: LWKDEGR, peptide start residue: 211) (UniProt O15234)”: -0.52. For “PER2 (peptide sequence: SKGQPSER, peptide start residue: 766) (UniProt O15055)”, the log2 fold change is -0.0732. For “APOL1 (peptide sequence: ANLQSVPHASASRPR, peptide start residue: 291) (UniProt O14791)”, the log2 fold change was 0.206.

Consider “UniProt O14529 (peptide sequence: VVLAPEEK, peptide start residue: 1249)”, for which the log2 fold change was determined as 0.036. Next, “SAP18 (peptide sequence: VKEIGSTMSGR, peptide start residue: 103) (UniProt O00422)”: 0.115; “KPNA3 (peptide sequence: GRDVETMR, peptide start residue: 19) (UniProt O00505)”: 0.444.
